# Test results reported in PubChem BioAssay AID1347076 (National Center for Advancing Translational Sciences (NCATS), 2019).
# The whole screen tested about 400,000 compounds, of which about 13,000 (3.2%) were called active. This list was built around the results that the source calls inconclusive (neither active nor inactive); the mix of calls is not that of the screen. Calls come from the whole dose curve; as a rule, active = well fitted cell-killing curve with a large enough effect; inconclusive = small, poorly fitted or top-dose-only effect, or effect the other way; inactive = flat fitted curve, though single readings scatter. Where the call is inconclusive, the potency comes from a doubtful curve fit.
# Experiment: qHTS assay for MDR1-selective chemotherapeutics: Primary screen using the drug-selected MDR subline cells KB-V1; note: nearly all actives have a fitted effect of over 60% in size
# Conditions: KB-V1 MDR cells viability, CellTiter-Glo, 72 h; activity change, negative = cytotoxicity: at 46.1 µM (top of the series)
# Summary of the method: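 Readout: CellTiter-Glo luminescence, 10 min after addition. Cells: KB-V1 MDR subline, 72 h at 37 degrees C with compound. Analysis: corrected, normalized data fitted to concentration-effect curves.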
# % is set by controls: 0 for no effect and ±100 for the full control effect; potency is the fitted concentration of half-maximal effect.
SMILES,Potency,"activity change, negative = cytotoxicity"
CCC1CCCCN1CCCNC(=O)CSc1nc2nc(C)c(Cc3ccccc3Cl)c(C)n2n1 (stereo not drawn),"inconclusive: 23.1 µM [rising, single point]",
Cc1c(C(=O)Nc2cccnc2)oc2ccc(Br)cc12,active: 3.26 µM,
COc1cccc(C(=O)Nc2c(C(=O)NC(C)(C)C)oc3ccccc23)c1,,inactive: 4.18%
COc1cc(OC)c(OC)cc1NC(=O)CC1COc2ccccc2O1 (stereo not drawn),active: 14.6 µM,
O=C(O)c1cccc(-c2csc(C(O)(c3ccccc3)C(F)(F)F)n2)c1 (stereo not drawn),,inactive: 2.37%
Cc1ccc(S(=O)(=O)N2CCOC2CNC(=O)C(=O)NCCc2ccccc2)cc1 (stereo not drawn),"inconclusive: 18.4 µM [cytotoxic, single point]",
CSc1ncc(C(=O)Nc2cccc(C)c2C)c(C)n1,,inactive: -7.68%
O=C(Cc1cccc2ccccc12)N/N=C/c1ccc(OC(=O)/C=C/c2ccco2)cc1,,inactive: 4.71%
CC1CCCCC1NC(=O)c1ccc(N2CCCC2=O)cc1 (stereo not drawn),"inconclusive: 9.2 µM [cytotoxic, partial curve, poor fit]",
CC(=O)Nc1ccc2c(c1)N(C(=O)CN(C)C)c1ccccc1CC2,,inactive: -4.8%
Cc1ccccc1CCN(CC(=O)NCc1ccc(F)cc1)C(=O)c1csnn1,"inconclusive: 5.8 µM [cytotoxic, full curve]",
OC[C@H]1O[C@@H](c2nc(-c3ccc(C4OCCO4)cc3)no2)[C@H](O)[C@@H]1O,,inactive: -0.548%
O=c1[nH]cnc2c1sc1nc3c(c(-c4ccc(Cl)cc4)c12)CCC3,"inconclusive: 11.6 µM [cytotoxic, partial curve]",
COc1ccc(CCn2c(N)c(C(=O)NCc3ccco3)c3nc4ccccc4nc32)cc1,active: 6.51 µM,
Oc1cccc(Nc2c3ccccc3nc3ccccc23)c1,,inactive: 4.61%
Cc1cc(C)n(-c2nc3c(c(=O)[nH]c(=O)n3C)n2CCc2ccccc2)n1,"inconclusive: 29.1 µM [cytotoxic, single point]",
O=C(Cn1ncc2c(=O)oc3ccccc3c21)NCc1ccccc1Cl,,inactive: 0%
CCCC(O)(c1ccc(Cl)cc1)C(CN1CCOCC1)c1ccc(Cl)cc1 (stereo not drawn),active: 16.4 µM,
COc1ccccc1Cc1c(C(C)(C)C)nc2ccc(C)cn12,"inconclusive: 18.4 µM [cytotoxic, partial curve, poor fit]",
Cc1[nH]c2ccccc2c1/C=N/Nc1nc(N2CCCCC2)nc(N2CCCCC2)n1,"inconclusive: 25.9 µM [cytotoxic, single point]",
COc1ccc(C(=O)NCCOc2ccccc2)cc1S(=O)(=O)N1CCOCC1,"inconclusive: 25.9 µM [rising, single point]",
Cc1cc(CNC(=O)CC2C(=O)NCCN2Cc2ccccc2)nn1C (stereo not drawn),"inconclusive: 29.1 µM [rising, single point]",
O=C(Nc1ccccc1C(=O)N1CCOCC1)c1ccc(CSc2ccccc2)cc1,"inconclusive: 8.2 µM [cytotoxic, partial curve]",
CCCCOCCCNC(=O)C[C@@H]1C[C@@]2(C(=O)OC)CCCCC=C2N(Cc2cccc3ccccc23)C1=O,"inconclusive: 9.2 µM [cytotoxic, partial curve]",
CCOC(CN=c1nc(N(C)C)ss1)OCC,"inconclusive: 18.4 µM [cytotoxic, single point]",

SMILES,Potency,"activity change, negative = cytotoxicity"
Cc1nnc2n(-c3ccccc3)c(=O)c3c4c(sc3n12)COC(C(C)C)C4 (stereo not drawn),,inactive: 5.56%
Cc1ccc(-c2csc(NC(=O)C3CCN(S(=O)(=O)c4cccs4)CC3)n2)cc1,active: 9.2 µM,
Cc1ccc(S(=O)(=O)Nc2ccc3cc([N+](=O)[O-])ccc3c2[N+](=O)[O-])cc1,"inconclusive: 29.1 µM [cytotoxic, single point]",
NCCOc1ccccc1Cc1ccccc1,,inactive: 5%
CCOC(=O)c1ccc(NC(=O)N2CCN(Cc3cccc(F)c3)CC2)cc1,active: 18.4 µM,
O=C(C1CCC(=O)N(C2CCCCCC2)C1)N1CCN(c2ccccc2Cl)CC1 (stereo not drawn),"inconclusive: 23.1 µM [cytotoxic, single point]",
CC(NC(=O)Cc1ccc(-c2ccccc2)cc1)c1ccccc1 (stereo not drawn),"inconclusive: 18.4 µM [cytotoxic, single point]",
CCCCOc1ccc(S(=O)(=O)N2CCN(c3ccccc3OCC)CC2)cc1,,inactive: 3.36%
Clc1ccc2c(N/N=C/c3ccc(Br)cc3)ccnc2c1,,inactive: 1.59%
CCn1ncc(C2=NOC(C(=O)NCc3ccccc3)C2)c1C (stereo not drawn),"inconclusive: 1.16 µM [cytotoxic, full curve, poor fit]",
Cc1ccc(C)c(S(=O)(=O)N2CCN(C(=O)[C@H](C)N3C(=O)C4CC=CCC4C3=O)CC2)c1 (stereo partly drawn),,inactive: -12.7%
O=C(Oc1c(CN2CCOCC2)cc(Cl)c2cccnc12)c1ccccc1,"inconclusive: 23.1 µM [cytotoxic, partial curve, poor fit]",
C[C@H](CO)N1C[C@H](C)[C@@H](CN(C)C(=O)Nc2cc(F)ccc2F)Oc2ncc(-c3cccc(F)c3)cc2C1=O,,inactive: -7.91%
Cc1cnc(=O)[nH]c1SCc1ccccc1F,"inconclusive: 29.1 µM [rising, single point]",
CCCc1nc2sc3c(SCC(=O)NCc4ccco4)ncnc3c2c2c1CCC2,active: 11.6 µM,
CC(=O)N1CCC(=NNc2ncc(C(F)(F)F)cc2Cl)CC1,"inconclusive: 29.1 µM [cytotoxic, single point]",
NC(N)=N/N=C/c1ccc(OS(=O)(=O)c2ccccc2)cc1,,inactive: -7.85%
CC1(C)CC(=O)C=C(Nc2ccc(Br)cc2F)C1,"inconclusive: 29.1 µM [cytotoxic, single point]",
Cc1cc(C)c2nc(N3CCC(C(=O)NCCCN4CC(C)CC(C)C4)CC3)sc2c1 (stereo not drawn),"inconclusive: 4.11 µM [cytotoxic, full curve]",
COc1ccc(CCNC(=O)CSc2nc3ccsc3c(=O)n2CC2CCC(C(=O)O)CC2)cc1OC (stereo not drawn),"inconclusive: 13 µM [rising, single point]",
COc1ccc(NC(=O)N/C=C/c2ccccc2)cc1,"inconclusive: 29.1 µM [rising, single point]",
O=C(COC(=O)Cc1ccccc1F)NCCNC(=O)COC(=O)Cc1ccccc1F,"inconclusive: 18.4 µM [rising, single point]",
Cc1ccc(-c2nnc(-c3ccc(Br)cc3)o2)o1,"inconclusive: 10.3 µM [cytotoxic, partial curve]",
O=S(=O)(c1ccc2[nH]c3c(c2c1)CCCCC3)N1CCN(c2ccccc2)CC1,"inconclusive: 29.1 µM [cytotoxic, single point]",
CC(=O)Nc1cccc(NC(=O)CSc2nc3c(=O)n(C)c(=O)n(C)c3n2C)c1,,inactive: 29.5%

SMILES,Potency,"activity change, negative = cytotoxicity"
Cc1ccc(-c2csc(N)n2)s1,"inconclusive: 4.61 µM [rising, partial curve]",
CCOC(=O)Nc1ccc2c(c1)N(C(=O)OC)c1ccccc1CC2,active: 5.8 µM,
O=C(CCn1cnc2ccccc2c1=O)NCc1ccccc1,,inactive: 18.2%
Nc1c(-c2ccc(F)c(F)c2)nc2ncccn12,,inactive: -7.2%
O=C1NN(c2ccccc2)C(=O)/C1=C\c1coc2ccc(O)cc2c1=O,,inactive: -1.3%
CCN(CCCNC(=O)C1CCC(=O)N1Cc1ccc(F)cc1)c1cccc(C)c1 (stereo not drawn),"inconclusive: 16.4 µM [cytotoxic, single point]",
COc1cc(C(=O)NC2CCCCC2)ccc1OCc1ccc(Cl)cc1Cl,"inconclusive: 29.1 µM [cytotoxic, single point]",
CCOC(=O)NC(NC(=O)OCC)C(=O)c1ccc(F)cc1,"inconclusive: 11.6 µM [cytotoxic, partial curve]",
Cc1ccccc1Nc1nc(Cl)c(C=O)s1,"inconclusive: 14.6 µM [rising, single point]",
O=C(c1ccc(CN2CCc3ccccc3C2)cc1)N1CCN(c2ccccc2)CC1,,inactive: -0.721%
COc1cc(C(=O)NCc2ccncc2)cc(OC)c1OC,,inactive: 12.4%
COc1ccccc1CNC(=O)c1ccc2ccccc2n1,"inconclusive: 13 µM [cytotoxic, partial curve]",
COc1cc([N+](=O)[O-])cc(/C=N/NC(=O)C(C)Nc2cccc(C)c2)c1O (stereo not drawn),"inconclusive: 16.4 µM [cytotoxic, single point]",
S=C(Nc1cccc(Br)c1)N1CCn2cccc2C1c1cccnc1 (stereo not drawn),"inconclusive: 13 µM [cytotoxic, partial curve, poor fit]",
Cc1ccccc1C1NC(c2ccccc2C)C([N+](=O)[O-])C(C)(C)C1[N+](=O)[O-] (stereo not drawn),"inconclusive: 23.1 µM [cytotoxic, single point]",
COC(=O)c1ccc(C)c(NC(=O)CN(c2ccccc2)S(=O)(=O)N(C)C)c1,"inconclusive: 18.4 µM [cytotoxic, partial curve, poor fit]",
COC(=O)C(C(C)C)N1CCc2c(C)nc3c(C#N)cnn3c21 (stereo not drawn),"inconclusive: 1.64 µM [rising, full curve, poor fit]",
CNc1ccc(Br)cc(C(=O)/C=C/c2cc(OC)ccc2OC)c1=O,active: 18.4 µM,
Cc1cc(C(=O)NCC(c2cccs2)N2CCOCC2)ccc1[N+](=O)[O-] (stereo not drawn),"inconclusive: 20.6 µM [cytotoxic, single point]",
O=C(NCCc1ccccn1)c1cc(-c2ccc(Cl)c(Cl)c2Cl)nc2ccccc12,active: 5.8 µM,
CCCCN(CC)C(=O)CN1C(=O)c2ccccc2C1=O,"inconclusive: 6.51 µM [rising, partial curve, poor fit]",
O=C(NC[C@@H]1CC[C@@H](Cc2ccc(-c3ccccc3)cc2)O1)Nc1ccc(Br)cc1,,inactive: -7.33%
O=C(NNC1=C(C(=O)C(F)(F)F)CCC1)c1cccnc1,,inactive: 5.02%

# Taken from the listing for reference:
SMILES,Potency,"activity change, negative = cytotoxicity"
CCOC(=O)Nc1ccc2c(c1)N(C(=O)OC)c1ccccc1CC2,active: 5.8 µM,
O=C(CCn1cnc2ccccc2c1=O)NCc1ccccc1,,inactive: 18.2%
Nc1c(-c2ccc(F)c(F)c2)nc2ncccn12,,inactive: -7.2%
O=C1NN(c2ccccc2)C(=O)/C1=C\c1coc2ccc(O)cc2c1=O,,inactive: -1.3%
CCN(CCCNC(=O)C1CCC(=O)N1Cc1ccc(F)cc1)c1cccc(C)c1 (stereo not drawn),"inconclusive: 16.4 µM [cytotoxic, single point]",
COc1cc(C(=O)NC2CCCCC2)ccc1OCc1ccc(Cl)cc1Cl,"inconclusive: 29.1 µM [cytotoxic, single point]",
CCOC(=O)NC(NC(=O)OCC)C(=O)c1ccc(F)cc1,"inconclusive: 11.6 µM [cytotoxic, partial curve]",
Cc1ccccc1Nc1nc(Cl)c(C=O)s1,"inconclusive: 14.6 µM [rising, single point]",
O=C(c1ccc(CN2CCc3ccccc3C2)cc1)N1CCN(c2ccccc2)CC1,,inactive: -0.721%
COc1cc(C(=O)NCc2ccncc2)cc(OC)c1OC,,inactive: 12.4%
COc1ccccc1CNC(=O)c1ccc2ccccc2n1,"inconclusive: 13 µM [cytotoxic, partial curve]",
COc1cc([N+](=O)[O-])cc(/C=N/NC(=O)C(C)Nc2cccc(C)c2)c1O (stereo not drawn),"inconclusive: 16.4 µM [cytotoxic, single point]",
S=C(Nc1cccc(Br)c1)N1CCn2cccc2C1c1cccnc1 (stereo not drawn),"inconclusive: 13 µM [cytotoxic, partial curve, poor fit]",
Cc1ccccc1C1NC(c2ccccc2C)C([N+](=O)[O-])C(C)(C)C1[N+](=O)[O-] (stereo not drawn),"inconclusive: 23.1 µM [cytotoxic, single point]",
COC(=O)c1ccc(C)c(NC(=O)CN(c2ccccc2)S(=O)(=O)N(C)C)c1,"inconclusive: 18.4 µM [cytotoxic, partial curve, poor fit]",
COC(=O)C(C(C)C)N1CCc2c(C)nc3c(C#N)cnn3c21 (stereo not drawn),"inconclusive: 1.64 µM [rising, full curve, poor fit]",
CNc1ccc(Br)cc(C(=O)/C=C/c2cc(OC)ccc2OC)c1=O,active: 18.4 µM,
Cc1cc(C(=O)NCC(c2cccs2)N2CCOCC2)ccc1[N+](=O)[O-] (stereo not drawn),"inconclusive: 20.6 µM [cytotoxic, single point]",
O=C(NCCc1ccccn1)c1cc(-c2ccc(Cl)c(Cl)c2Cl)nc2ccccc12,active: 5.8 µM,
CCCCN(CC)C(=O)CN1C(=O)c2ccccc2C1=O,"inconclusive: 6.51 µM [rising, partial curve, poor fit]",
O=C(NC[C@@H]1CC[C@@H](Cc2ccc(-c3ccccc3)cc2)O1)Nc1ccc(Br)cc1,,inactive: -7.33%
O=C(NNC1=C(C(=O)C(F)(F)F)CCC1)c1cccnc1,,inactive: 5.02%
